# Library screening results

Mtb growth Cornell: 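Whole-cell assay for inhibitors of Mycobacterium tuberculosis growth, labelled Cornell in the record; the read-out is not stated. The concentration is filed as 10 mM, unlikely as a test dose, so the dose is not known. The record gives no direction; compounds strong in two other growth screens of this library score well above the rest, so higher reads as stronger inhibition. Size under these conditions: about 53,000 compounds, about 900 of them at 50% or above in at least one test.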
Mtb heat-shock: 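Assay on Mycobacterium tuberculosis, filed only as a heat shock assay from Cornell; the read-out is not stated. The concentration is filed as 10 mM, unlikely as a test dose, so the dose is not known. Direction is inferred from retests: higher values go with stronger inhibition. Size under these conditions: about 69,000 compounds, about 930 of them at 50% or above in at least one test.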

Values are the deposited “Percent Effect”, in %. The record does not define 0% and 100%; most values in the screen are far below 50% and negative numbers occur (in some assays of this library far below -100). This is an unselected part of the compounds tested. A dash means the value is not listed here; it may have been measured.

compound,Mtb growth Cornell,Mtb heat-shock
CN1CC(C(=O)NC2(c3ccc(Cl)cc3)CCOCC2)CC1=O (stereo not drawn),30.91,-5.97
Oc1ccccc1-c1n[nH]c(C2CCCO2)n1 (stereo not drawn),-37.53,-10.1
CCn1cnnc1C1CCN(C(=O)c2ccnc(N(C)C)c2)CC1,-2.838,11.88
O=C(CCC1CCCCO1)NCc1cnn(-c2ccc(F)cc2F)c1 (stereo not drawn),-,-24.37
COc1cccc2c1ccn2CCNC(C)=O,6.004,-6.355
CNC(=O)CCc1cc(C2CCCCN2C)nc(C)n1 (stereo not drawn),-36.41,8.628
CCc1ccc(O)c(C(=O)NC2CCN(S(=O)(=O)CC)CC2)c1,0.6103,31.74
CC(C)(C)CC(=O)N1CCc2sccc2C1,-11.53,-6.876
Cc1cccc2c1nc1n2[C@@H](CNC(=O)NC(C)C)COC1,14.9,-29.08
CC1CN(C(=O)NCCc2nc(C(C)C)no2)CCO1 (stereo not drawn),-6.707,13.35
Cc1noc(C)c1C(=O)N1CCC(n2cccn2)CC1,-11.61,-13.99
Cc1nc(-c2ccoc2)n(CC(=O)NCC(C)C)c1C,9.835,-1.314
COCC(=O)N1CCC(=O)N(C2CCCC2)Cc2ccccc21,-0.5658,32.51
Cc1cc(C)n(CC2CCCN2C(=O)c2ccc3[nH]cnc3c2)n1 (stereo not drawn),0.1331,-5.142
CC(C)CC(=O)N1CC(=O)N(Cc2ccco2)CC(O)C1 (stereo not drawn),-16.35,14.12
Cc1cc(C(=O)NCc2cccs2)c2c(C3CCCN3)noc2n1 (stereo not drawn),-,-23.77
CC(=O)N1CC(C)CN(C(=O)c2cccnc2C)c2ccccc21 (stereo not drawn),8.396,4.147
CCS(=O)(=O)N1CCn2cc(CN(C)Cc3ccco3)nc2C1,26.08,9.362
Cc1n[nH]cc1C(=O)NCc1cccnc1N1CCc2ccccc2C1,4.26,-14.47
CCc1cnc(CN(C(C)=O)C2CCN(CCc3cnn(C)c3)C2)o1 (stereo not drawn),11.07,6.328
CCN1CCCC1CN(CCN(C)C)S(=O)(=O)c1cccc(C#N)c1 (stereo not drawn),14.69,9.439
O=C(O)C(F)(F)F.[H][C@@]12CN(Cc3cccs3)C[C@]1([H])C(=O)N(c1ccsc1)C2,29.39,23.83
CC1COC2(CCN(C(=O)Cc3ccncc3)CC2)C1.O=C(O)C(F)(F)F (stereo not drawn),-12.72,19.29
O=C(O)C(F)(F)F.[H][C@@]12C[C@@H](Oc3ccc(C)cc3)CN1CCN(C(=O)c1cnccn1)C2,39.96,-31.09
Cn1cccc(NC(=O)N2CCC(Cc3ccccc3)C2)c1=O (stereo not drawn),-15.76,-11.17
FC(F)(F)COCCN1CCN(c2ccc3nncn3n2)CC1,13.8,15.07
Cc1nn(-c2ccc(C(=O)O)cc2)c2c1C(C(C)C)SCC(=O)N2 (stereo not drawn),13.69,5.371
CN(Cc1cccs1)C(=O)CN1CCCC1Cn1cncn1 (stereo not drawn),-5.807,0.6207
Cc1nc(S(=O)(=O)NCCC(=O)NCc2ccsc2)cn1C,-1.846,-3.316
O=C(CN1CCCCCCC1=O)NCc1ccccn1,11,10.14
CS(=O)(=O)N1CCC(Oc2ccc(C(=O)N3CCSCC3)cc2Cl)CC1,-12.96,3.823
O=C(O)C(F)(F)F.[H][C@]12CCN(Cc3ccc4c(c3)OCO4)[C@@]1([H])C[C@H](C(=O)N(C)C)O2,-2.711,-42.21
Cc1ccc(N2C[C@H](C)[C@]3(CCN(c4cccnc4)C3=O)C2)nn1.O=C(O)C(F)(F)F.O=C(O)C(F)(F)F,-1.214,3.194
O=C1C(Nc2ccc3nccnc3n2)CCN1c1ccccc1 (stereo not drawn),-,-13.38
CC(C)Oc1ncnc2c1CCN(C(=O)c1cccn1C)CC2,-,-5.041
Cc1cc(C)nc(Nc2cncc(C3CCCN(S(C)(=O)=O)C3)n2)n1 (stereo not drawn),-62.27,-28.88
CN(Cc1ccc([S+](C)[O-])cc1)c1ccc(C(F)(F)F)cn1 (stereo not drawn),26.12,1.741
CC(=O)N1CCN(c2cc(N(C)C)cnn2)CC1,-7.011,6.356
O=C(O)C(F)(F)F.[H][C@]12CCN(C(=O)C3CCOCC3)[C@@]1([H])CCC(=O)N2Cc1ccncc1,-,-1.402
Cc1ccc(CN2CCCC(c3cnccn3)C2)s1 (stereo not drawn),14.09,7.387
CC(C)(C)c1nnc(NCC(=O)N2CCc3sccc3C2)s1,14.35,-8.182
Cc1nn(C)c(Cl)c1C1CCCN1C(=O)c1nccnc1N (stereo not drawn),3.671,4.575
Cc1ncc(S(C)(=O)=O)c(N2CCCCCC2)n1,-32.73,-30.86
[H][C@]12CCCC[C@]1([H])N(C(=O)N1CCN(C)CC1)CC[C@@]2(O)c1ccccc1,10.42,-11.54
CCC(C)NC(=O)Nc1cccc(OC)c1 (stereo not drawn),-23.11,-2.437
c1cc(-c2ccc(CN3CCCC4(CCNC4)C3)s2)[nH]n1 (stereo not drawn),13.89,-26.24
Cc1cnnn1Cc1nnn2c1CN(Cc1cccs1)CCC2.O=C(O)C(F)(F)F,6.355,-9.729
COc1cccc(CN2CCN(Cc3ccc4nonc4c3)CC2=O)c1,16.81,-1.966
COCCC(=O)N(C)Cc1nc(C(F)(F)F)cs1,-0.8564,1.249
c1ccc(-c2cnc(CN3CCn4c(nnc4C4CC4)C3)o2)cc1,-,-3.122
COCc1noc(-c2nn(-c3ccccc3F)c3c2CCC3)n1,2.824,7.209
CCN(Cc1nnsc1Cl)C(C)c1ccc(C#N)cc1 (stereo not drawn),-2.84,6.466
Cc1cc(S(=O)(=O)N2CCCc3cc(Cl)ccc32)sc1C(=O)O,-16.26,-16.97
Cc1nc(CN(C)C2CCN(CC3CCC3)C2)no1 (stereo not drawn),0.3047,-7.413
Cn1cc(C2CCCN2C(=O)Cc2n[nH]c3ccccc23)cn1 (stereo not drawn),-61.5,9.862
O=C(O)C(F)(F)F.[H][C@]12CCN(C(=O)c3ccoc3)[C@@]1([H])CC[C@H](COCCN1CCCC1)O2,0.05884,-1.941
[H][C@@]12CN(C(=O)N(C)C)C[C@@]1([H])N(CC(C)C)C(=O)CO2,-2.162,-11.01
Cn1cnc2c1CCN(Cc1csc(-c3ccco3)n1)C2,-,-1.764
Cn1cccc1C(=O)N1CCc2ncc(Cn3cccn3)n2CC1,26.57,4.863
Cc1csc(N2CCN(CC(=O)Nc3nncs3)CC2C)n1 (stereo not drawn),20.86,10.15
CN(C)C(C(=O)N1Cc2ccccc2C1)c1ccccc1F (stereo not drawn),16.38,6.932
CCC1CCCCN1CCc1ccncc1 (stereo not drawn),2.967,-30.03
CCCc1cnc(C)nc1N1CCC(F)(F)CC1,20.37,23.14
Cc1cc(N(C)Cc2ncc[nH]2)nc(-c2cccnc2)n1,2.12,2.115
CN(C)CCN(C)C[C@@H]1CN(Cc2cccc(O)c2)C[C@@H]1CO,-15.98,-15.18
Cc1cc(CN2CCC(CNC(=O)CN3CCCCCC3)C2)[nH]n1 (stereo not drawn),-27.34,-28.16
Fc1cccc(CN2CCOC3(COCCN(CC4CC4)C3)C2)c1.O=C(O)C(F)(F)F.O=C(O)C(F)(F)F (stereo not drawn),6.107,11.11
COc1cccc(CNC(=O)c2cccnc2SC(C)C)c1,-0.6501,-2.219
[H][C@]12CC[C@]([H])(CN(C(=O)c3ccncc3)C1)N(C(=O)C1CCCC1)C2,13.09,13.42
O=C(c1cnc(-c2ccccn2)s1)N1CCCC(n2cccn2)C1 (stereo not drawn),-35.72,-7.844
COCC(=O)N1CCC(c2cc(-c3ccc(N)nc3)cc(C)n2)CC1,-22.47,-27.54
C=C(C)COc1cccc(CNC(CC)c2ccnn2C)c1 (stereo not drawn),4.595,-8.209
Cc1cnn(CCNCc2ccc(OCC(N)=O)cc2)c1,17.85,0.4849
O=C(CCn1nnc2ccccc2c1=O)N(CC1CCOC1)C1CC1 (stereo not drawn),11.8,6.883
CC(=O)N1Cc2ccccc2C[C@H]1C(=O)Nc1ccccn1,2.845,20.82
CCN1CCN(C(C)(C)CNc2nc(C)cc(C3CCC3)n2)CC1,8.458,-19.99
CN1C[C@@H](F)[C@@H](OCc2nc3ccccc3n2C)C1,-,-15.3
Cc1nc2c(c(=O)n1C)CN(C(=O)C1CCCN(C3CCCC3)C1)C2 (stereo not drawn),8.621,12.07
CCC1CC(=O)NCc2nc3sc(C)cn3c21 (stereo not drawn),1.966,12.85
NC(=O)N1CCC2(CCN(C(=O)c3cccnc3)CC2)C1.O=C(O)C(F)(F)F,0.6464,-5.676
Cc1cc(C)nc(Nc2cc(C3CCCN(C)C3)nc(C)n2)n1.O=CO (stereo not drawn),8.997,-6.518

For reference, 8 entries once more:

compound,Mtb growth Cornell,Mtb heat-shock
Cc1cc(C(=O)NCc2cccs2)c2c(C3CCCN3)noc2n1 (stereo not drawn),-,-23.77
Cn1cccc1C(=O)N1CCc2ncc(Cn3cccn3)n2CC1,26.57,4.863
Cc1nc(S(=O)(=O)NCCC(=O)NCc2ccsc2)cn1C,-1.846,-3.316
O=C(CCn1nnc2ccccc2c1=O)N(CC1CCOC1)C1CC1 (stereo not drawn),11.8,6.883
Cn1cccc(NC(=O)N2CCC(Cc3ccccc3)C2)c1=O (stereo not drawn),-15.76,-11.17
CC(C)(C)CC(=O)N1CCc2sccc2C1,-11.53,-6.876
O=C(O)C(F)(F)F.[H][C@]12CCN(Cc3ccc4c(c3)OCO4)[C@@]1([H])C[C@H](C(=O)N(C)C)O2,-2.711,-42.21
c1cc(-c2ccc(CN3CCCC4(CCNC4)C3)s2)[nH]n1 (stereo not drawn),13.89,-26.24

Measurements from “University of Dundee, Small-Polar-MMV Screening Library” (2021), ChEMBL document CHEMBL3988442.